Data taken from PubChem BioAssay AID230 (DTP/NCI, 2004).
The list shows only some results of the screen, not a fair sample: it gathers tests that were run many times, whatever their T/C, doses with no T/C, and many T/C values between a quarter and a half above the control. Other doses and runs of a compound stand elsewhere. T/C: endpoint of the treated group in % of that of the vehicle group. Some doses have a count of surviving animals in place of a T/C: the source files T/C as zero there, which appears to mark a toxic dose or a test without result, not a measured value. Some survivor counts are full or nearly so, which does not show that the dose was tolerated: the source hardly ever lists a survival T/C far under the control, and the zero likely stands for such cases as well. Survivors were counted at the toxicity check, usually on the fifth day, unless a day is given; later deaths do not show. Schedules are NCI's codes, read here as Q, the interval in days (D) or hours (H), X, the number of doses. Where survival is the endpoint, the PubChem record calls one and a half times the control and up active, and a quarter to a half above the control has no call in these data; cut-offs in other NCI protocols can differ. Some doses were run more than once; the values are given in rising order.

Tested on: C3H/He mice, Gardner lymphosarcoma 6C3HED ip, survival T/C
Experiment: NCI In Vivo Anticancer Drug Screen. Data for tumor model Lymphosarcoma Gardner 6C3HED (intraperitoneal) in C3H/He mice
Settings: higher T/C = longer survival
Method: The antitumor activity of compounds was measured in mice bearing transplantable tumors. Survival or tumor size were measured and the results are expressed as the measurement made in the treated group (T) divided by the measurement made in the vehicle treated control group (C). The tumor model used in this assay is Lymphosarcoma Gardner 6C3HED (intraperitoneal) in C3H/He mice

[1] = T/C endpoint: survival time, mean or median, dose: 250.0 mg/kg/injection, schedule: Q01DX010 (ip), vehicle: saline
[2] = T/C endpoint: survival time, mean or median, dose: 25.0 mg/kg/injection, schedule: Q01DX010 (ip), vehicle: saline
[3] = T/C endpoint: survival time, mean or median, dose: 31.3 mg/kg/injection, schedule: Q01DX010 (ip), vehicle: saline
[4] = T/C endpoint: survival time, mean or median, dose: 62.5 mg/kg/injection, schedule: Q01DX010 (ip), vehicle: saline
[5] = T/C endpoint: survival time, mean or median, dose: 100.0 mg/kg/injection, schedule: Q01DX010 (ip), vehicle: saline
[6] = T/C endpoint: survival time, mean or median, dose: 60.0 mg/kg/injection, schedule: Q01DX010 (ip), vehicle: saline
[7] = T/C endpoint: survival time, mean or median, dose: 120.0 mg/kg/injection, schedule: Q01DX010 (ip), vehicle: saline
[8] = T/C endpoint: survival time, mean or median, dose: 6.25 mg/kg/injection, schedule: Q01DX010 (ip), vehicle: saline
[9] = T/C endpoint: survival time, mean or median, dose: 12.5 mg/kg/injection, schedule: Q01DX010 (ip), vehicle: saline
[10] = T/C endpoint: survival time, mean or median, dose: 50.0 mg/kg/injection, schedule: Q01DX010 (ip), vehicle: saline
[11] = T/C endpoint: survival time, mean or median, dose: 10.0 mg/kg/injection, schedule: Q01DX010 (ip), vehicle: saline
[12] = T/C endpoint: survival time, mean or median, dose: 15.6 mg/kg/injection, schedule: Q01DX010 (ip), vehicle: saline
[13] = T/C endpoint: survival time, mean or median, dose: 125.0 mg/kg/injection, schedule: Q01DX010 (ip), vehicle: saline
[14] = T/C endpoint: survival time, mean or median, dose: 500.0 mg/kg/injection, schedule: Q01DX010 (ip), vehicle: saline
[15] = T/C endpoint: survival time, mean or median, dose: 40.0 mg/kg/injection, schedule: Q01DX010 (ip), vehicle: saline
[16] = T/C endpoint: survival time, mean or median, dose: 200.0 mg/kg/injection, schedule: Q01DX010 (ip), vehicle: saline
[17] = T/C endpoint: survival time, mean or median, dose: 1.25 mg/kg/injection, schedule: Q01DX010 (ip), vehicle: saline
[18] = T/C endpoint: survival time, mean or median, dose: 2.5 mg/kg/injection, schedule: Q01DX010 (ip), vehicle: saline
[19] = T/C endpoint: survival time, mean or median, dose: 5.0 mg/kg/injection, schedule: Q01DX010 (ip), vehicle: saline
[20] = T/C endpoint: survival time, mean or median, dose: 1.0 mg/kg/injection, schedule: Q01DX010 (ip), vehicle: saline
[21] = T/C endpoint: survival time, mean or median, dose: 500.0 micrograms/kg/injection, schedule: Q01DX010 (ip), vehicle: saline

In the case of Nc1nc([Se])c2ncn(C3OC(CO)C(O)C3O)c2n1 (stereo not drawn), the survivor count (T/C endpoint: median survival time, dose: 32.0 mg/kg/injection, schedule: Q01DX009 (ip), vehicle: saline) is reported as 8 of 10.

With CCN(CC)C(=S)S the survivor count [1] was 6 of 6 and the survivor count (T/C endpoint: survival time, mean or median, dose: 1000.0 mg/kg/injection, schedule: Q01DX010 (ip), vehicle: saline) was 5 of 6.

With Nc1ncnc2c1ncn2C1OC(CO)C(O)C1O (stereo not drawn) the survivor count (T/C endpoint: median survival time, dose: 1.56 mg/kg/injection, schedule: Q11DX018 (ip), vehicle: saline with Tween-80) was 10 of 10, the survivor count (T/C endpoint: median survival time, dose: 3.13 mg/kg/injection, schedule: Q11DX018 (ip), vehicle: saline with Tween-80) was 10 of 10 and the survivor count (T/C endpoint: median survival time, dose: 6.25 mg/kg/injection, schedule: Q11DX018 (ip), vehicle: saline with Tween-80) was 10 of 10.

For CO[C@@H]1[C@@H](OC2OC(C)C(OC3CC(C)(O)C(OC(=O)CC(C)C)C(C)O3)C(N(C)C)C2O)[C@@H](CC=O)C[C@@H](C)C(=O)/C=C/C2O[C@H]2C[C@@H](C)OC(=O)C[C@H]1OC(C)=O (stereo partly drawn), the survivor count (T/C endpoint: survival time, mean or median, dose: 4.7 mg/kg/injection, schedule: Q01DX010 (ip), vehicle: saline) was 6 of 6, the survivor count (T/C endpoint: survival time, mean or median, dose: 9.4 mg/kg/injection, schedule: Q01DX010 (ip), vehicle: saline) was 6 of 6 and the survivor count (T/C endpoint: survival time, mean or median, dose: 37.5 mg/kg/injection, schedule: Q01DX010 (ip), vehicle: saline) was 6 of 6. For the same molecule, the survivor count (T/C endpoint: survival time, mean or median, dose: 75.0 mg/kg/injection, schedule: Q01DX010 (ip), vehicle: saline) was 6 of 6, the survivor count (T/C endpoint: survival time, mean or median, dose: 150.0 mg/kg/injection, schedule: Q01DX010 (ip), vehicle: saline) was 6 of 6 and the survivor count (T/C endpoint: survival time, mean or median, dose: 300.0 mg/kg/injection, schedule: Q01DX010 (ip), vehicle: saline) was 6 of 6.

With O=P1(N(CCCl)CCCl)NCCCO1 (stereo not drawn) the T/C (T/C endpoint: median survival time, dose: 20.0 mg/kg/injection, schedule: Q01DX003 (ip), vehicle: saline) was 145 % of control, the survivor count (T/C endpoint: median survival time, dose: 50.0 mg/kg/injection, schedule: Q01DX007 (ip), vehicle: saline) was 5 of 6 and the T/C [2] was 126 % of control.

For CCCSc1ncnc2nc[nH]c12, the survivor count [3] was 6 of 6 and the survivor count [4] was 6 of 6.

In the case of COS(C)(=O)=O, the survivor count [5] is reported as 6 of 6.

In the case of [N-]=[N+]=CC(=O)CCC(N)C(=O)O (stereo not drawn), the T/C (T/C endpoint: survival time, mean or median, dose: 0.2 mg/kg/injection, schedule: Q01DX010 (ip), vehicle: saline) is reported as 131 and 135 % of control.

For C[N+](C)(C)c1ncnc2nc[nH]c12, the survivor count [6] was 6 of 6 and the survivor count [7] was 6 of 6.

[I][Hg][CH2]C1COC([CH2][Hg][I])CO1 (stereo not drawn) was tested, and the survivor count (T/C endpoint: survival time, mean or median, dose: 0.78 mg/kg/injection, schedule: Q01DX010 (ip), vehicle: saline) was 6 of 6, the survivor count [8] was 6 of 6 and the survivor count [9] was 6 of 6. For the same molecule, the survivor count [2] was 5 of 6 and the survivor count [10] was 0 of 6.

For N#[N+]c1cnc([O-])[nH]c1=O, the survivor count [11] was 5 of 6.

CC(=O)Nc1ccc2nc3ccc(NC(C)=O)cc3[n+](-c3ccccc3)c2c1 was tested, and the survivor count [10] was 5 of 6.

With Nc1c(Br)cc2c(c1Br)Cc1cc([N+](=O)[O-])ccc1-2 the survivor count [12] was 6 of 6, the survivor count [3] was 6 of 6 and the survivor count [4] was 6 of 6. For the same molecule, the survivor count [13] was 6 of 6, the survivor count [1] was 6 of 6 and the survivor count [14] was 6 of 6.

CN(C)[C@@H]1C(=O)C(C(N)=O)=C(O)[C@@]2(O)C(=O)C3=C(O)c4c(O)cccc4C[C@H]3C[C@@H]12 was tested, and the survivor count (T/C endpoint: survival time, mean or median, dose: 1.88 mg/kg/injection, schedule: Q01DX010 (ip), vehicle: saline) was 6 of 6, the survivor count (T/C endpoint: survival time, mean or median, dose: 30.0 mg/kg/injection, schedule: Q01DX010 (ip), vehicle: saline) was 6 of 6 and the survivor count [6] was 5 of 6. The survivor count [7] was 0 of 6.

With CC1CCOS(=O)O1 (stereo not drawn) the survivor count [15] was 6 of 6 and the survivor count (T/C endpoint: survival time, mean or median, dose: 80.0 mg/kg/injection, schedule: Q01DX010 (ip), vehicle: saline) was 6 of 6.

O=[n+]1c2c(n([O-])c3ccccc31)-c1cccc3cccc-2c13 was tested, and the survivor count [8] was 6 of 6, the survivor count [9] was 6 of 6 and the survivor count [2] was 6 of 6. For the same molecule, the survivor count [10] was 4 of 6, the survivor count [5] was 6 of 6 and the survivor count [16] was 0 of 6.

CN(C)c1ccc(/C=C/c2ccnc3ccccc23)cc1 was tested, and the survivor count (T/C endpoint: survival time, mean or median, dose: 64.0 mg/kg/injection, schedule: Q01DX010 (ip), vehicle: saline) was 6 of 6 and the survivor count (T/C endpoint: survival time, mean or median, dose: 128.0 mg/kg/injection, schedule: Q01DX010 (ip), vehicle: saline) was 6 of 6.

With N#Cc1cn(C2OC(CO)C(O)C2O)c2ncnc(N)c12 (stereo not drawn) the survivor count (T/C endpoint: survival time, mean or median, dose: 63.0 micrograms/kg/injection, schedule: Q01DX010 (ip), vehicle: saline) was 6 of 6 and the survivor count (T/C endpoint: survival time, mean or median, dose: 250.0 micrograms/kg/injection, schedule: Q01DX010 (ip), vehicle: saline) was 5 of 6.

CC[C@@H](c1ccc(O)cc1)[C@@H](CC)c1ccc(O)cc1 was tested, and the survivor count (T/C endpoint: survival time, mean or median, dose: 200.0 mg/kg/injection, schedule: Q01DX010 (sc), vehicle: water) was 6 of 6.

For COc1cc(-c2ccc(Nc3ccccc3C(=O)O)c(OC)c2)ccc1N, the survivor count (T/C endpoint: survival time, mean or median, dose: 20.0 mg/kg/injection, schedule: Q01DX010 (ip), vehicle: saline) was 7 of 7.

For C[C@@H]1C[C@H]2CC[C@H](O2)[C@H](C)C(=O)O[C@@H](C)C[C@@H]2CC[C@@H](O2)[C@@H](C)C(=O)O[C@H](C)C[C@H]2CC[C@H](O2)[C@H](C)C(=O)O[C@@H](C)C[C@@H]2CC[C@@H](O2)[C@@H](C)C(=O)O1, the survivor count [5] was 5 of 6.

With CC[n+]1c(-c2ccccc2)c2cc(N)ccc2c2ccc(N)cc21 the T/C [17] was 132 % of control, the T/C [18] was 137 % of control and the T/C [19] was 146 % of control. For the same molecule, the T/C [11] was 144 % of control.

CC(=O)NC1=C(N2CC2)C(=O)C(NC(C)=O)=C(N2CC2)C1=O was tested, and the survivor count [20] was 6 of 6 and the survivor count [21] was 6 of 6.

With N[C@@H](Cc1ccc(N(CCCl)CCCl)cc1)C(=O)O the T/C [20] was 130 % of control.

In the case of COc1ccc2c(c1OC)C(=O)O[C@@H]2[C@H]1c2c(cc3c(c2OC)OCO3)CCN1C, the survivor count [12] is reported as 6 of 6, the survivor count [4] is reported as 6 of 6 and the survivor count [13] is reported as 5 of 6. The survivor count [1] was 6 of 6.

With OCCOCCN1CCN(CCCN2c3ccccc3Sc3ccc(C(F)(F)F)cc32)CC1 the survivor count (T/C endpoint: survival time, mean or median, dose: 0.63 mg/kg/injection, schedule: Q01DX010 (ip), vehicle: saline) was 6 of 6, the survivor count [17] was 5 of 6 and the survivor count [18] was 4 of 6. For the same molecule, the survivor count [19] was 5 of 6, the survivor count [11] was 6 of 6 and the survivor count [15] was 6 of 6.

For COc1cc(-c2ccc(Nc3ccccc3C(=O)O)c(OC)c2)ccc1Nc1ccccc1C(=O)O, the survivor count [5] was 4 of 6 and the survivor count [16] was 4 of 6.

For O=c1[nH]c(=O)n(C2CC(O)C(CO)O2)cc1C(F)(F)F (stereo not drawn), the survivor count [1] was 6 of 6 and the survivor count [14] was 6 of 6.

For O[C@H](CN1CC1)[C@@H](O)CN1CC1, the T/C (T/C endpoint: survival time, mean or median, dose: 125.0 micrograms/kg/injection, schedule: Q01DX010 (ip), vehicle: saline) was 146 % of control, the survivor count [21] was 6 of 6 and the survivor count (T/C endpoint: survival time, mean or median, dose: 1000.0 micrograms/kg/injection, schedule: Q01DX010 (ip), vehicle: saline) was 6 of 6.

With O=c1[nH]cc(F)c(=O)[nH]1 the T/C [11] was 143 % of control.
